Test results published in PubChem BioAssay AID540256 (National Center for Advancing Translational Sciences (NCATS), 2011).
Out of some 300,000 compounds screened, about 3,700 (1.2%) were called active. Inconclusive results, whose numbers are uncertain, are shown with a selection of clear calls. Calls come from the whole dose curve; tested in HEK293 cells. Where the call is inconclusive, the potency comes from a doubtful curve fit.

Assay: qHTS for Inhibitors of binding or entry into cells for Lassa Virus; note: nearly all actives have a fitted effect of over 50% in size
Conditions: Lassa virus pseudotype entry inhibition, cell reporter; activity change, negative = inhibition: at 37.9 µM (top of the series) unless noted
% is set by controls: 0 for no effect and ±100 for the full control effect; potency is the fitted concentration of half-maximal effect.

Row | Compound | Potency | activity change, negative = inhibition
1 | Cc1ccc(S(=O)(=O)Nc2ccccc2CNc2ncc(Br)cc2Br)cc1 | inconclusive: 35.5 µM [inhibitor, single point] | –
2 | CCOc1ccc(CNC(=O)CN2N=C(c3ccccc3)CCC2=O)cc1OC | inconclusive: 6.31 µM [activator, single point] | –
3 | CCc1ccc(C2C(C(=O)Nc3ccccc3OC)=C(C)Nc3nc(SCc4ccccc4)nn32)cc1 (stereo unspecified) | – | inactive: -14.4% [at 46.1 µM]
4 | Nc1ccc(-c2cc(-c3ccc(N)cc3)nc(-c3ccccc3)n2)cc1 | inconclusive: 1.41 µM [inhibitor, partial curve, poor fit] | –
5 | Cc1ccc(-c2noc(CN(C(=O)CCCCCN3C(=O)c4ccccc4C3=O)C(C)C)n2)cc1 | inconclusive: 35.5 µM [inhibitor, single point] | –
6 | O=C(Nc1cccc2ccccc12)c1ccc([N+](=O)[O-])s1 | inconclusive: 23.1 µM [inhibitor, partial curve, poor fit] | –
7 | COc1ccc(/C=C/C(=O)Nc2cc(S(=O)(=O)N3CCOCC3)ccc2N2CCCC2)cc1OC | inconclusive: 10 µM [inhibitor, partial curve, poor fit] | –
8 | COc1ccc(NC(=S)NCCc2ccc(F)cc2)c(OC)c1 | – | inactive: 4.8%
9 | COC(=O)Cc1c(C)c2ccc(O)c(CNCc3ccc(OC)c(OC)c3)c2oc1=O | – | inactive: 18.7% [at 46.1 µM]
10 | O=C(CSc1nnc2c(n1)[nH]c1ccccc12)Nc1nncs1 | – | inactive: 1.89% [at 46.1 µM]
11 | C/C(=N/NS(=O)(=O)c1ccc(C)cc1)[C@H]1C[C@@H]1c1ccccc1 | – | inactive: 0.848%
12 | O=C(NC(=S)Nc1cc(S(=O)(=O)N2CCOCC2)ccc1N1CCOCC1)c1ccco1 | – | inactive: 1.55%
13 | Cc1c(C(=O)Nc2nc3ccccc3[nH]2)oc2ccccc12 | inconclusive: 35.5 µM [inhibitor, single point] | –
14 | CCOC(=O)NNS(=O)(=O)c1cc(Br)ccc1Br | – | inactive: 12.4% [at 46.1 µM]
15 | COC(=O)c1ccc(CSc2nnc(-c3c[nH]c4ccccc34)n2-c2ccccc2)cc1 | inconclusive: 25.1 µM [inhibitor, partial curve, poor fit] | –
16 | CCOC(=O)N1CCN(c2ncc3c(n2)CC(c2ccc(Cl)cc2)CC3=O)CC1 (stereo unspecified) | inconclusive: 2.51 µM [inhibitor, full curve, poor fit] | –
17 | C=CCN1CC[C@]23c4c5ccc(O)c4O[C@@H]2/C(=N/N=C2\CC[C@@]4(O)C6Cc7ccc(O)c8c7[C@@]4(CCN6CC=C)[C@@H]2O8)CC[C@@]3(O)C1C5 | active: 16.4 µM | –
18 | Cc1cccn2c(CN[C@H]3CCCCNC3=O)c(C(=O)N3CCOCC3)nc12 | inconclusive: 3.98 µM [inhibitor, single point] | –
19 | Cc1ccc2nc(-c3ccc(NC(=O)COc4ccccc4C(C)(C)C)cc3)sc2c1 | – | inconclusive: 28.7% [activator] [at 46.1 µM]
20 | COc1ccc2cc(CN(C(=O)Nc3ccccc3OC)C3CCCC3)c(=O)[nH]c2c1 | inconclusive: 12.6 µM [inhibitor, partial curve, poor fit] | –
21 | O=C(Nc1ccc(N2CCN(C(=O)c3ccccc3F)CC2)cc1)c1cncc(Br)c1 | inconclusive: 35.5 µM [inhibitor, single point] | –
22 | Cc1ccc(C)c(N(C(=O)c2ccco2)C(C(=O)NC2CCCC2)c2ccco2)c1 (stereo unspecified) | inconclusive: 35.5 µM [inhibitor, single point] | –

Copied from above, nos. 12 to 14
Row | Compound | Potency | activity change, negative = inhibition
12 | O=C(NC(=S)Nc1cc(S(=O)(=O)N2CCOCC2)ccc1N1CCOCC1)c1ccco1 | – | inactive: 1.55%
13 | Cc1c(C(=O)Nc2nc3ccccc3[nH]2)oc2ccccc12 | inconclusive: 35.5 µM [inhibitor, single point] | –
14 | CCOC(=O)NNS(=O)(=O)c1cc(Br)ccc1Br | – | inactive: 12.4% [at 46.1 µM]

(more compounds)

Row | Compound | Potency | activity change, negative = inhibition
23 | Cc1cc(C(=O)C(C)OC(=O)c2ccc(NC(=O)CC#N)cc2)c(C)n1-c1ccccc1 (stereo unspecified) | inconclusive: 25.1 µM [inhibitor, single point] | –
24 | C=CCc1cccc2cc(-c3nc4ccc(C(=O)O)cc4[nH]3)c(=O)oc12 | – | inactive: 0.694% [at 46.1 µM]
25 | CCOc1ccccc1NC(=O)C(Sc1ccccc1)c1ccccc1 (stereo unspecified) | active: 12.6 µM | –
26 | C/C(=N\N=C(N)N)c1ccc(Cl)cc1Cl | inconclusive: 12.6 µM [inhibitor, single point] | –
27 | Cc1cc(C)c(NC(=O)COC(=O)c2ccncc2)c(C)c1 | – | inactive: -17.8% [at 46.1 µM]
28 | O=C(NC12CC3CC(CC(C3)C1)C2)OC1CN2CCC1CC2 (stereo unspecified) | – | inactive: 2.53%
29 | COc1ncnc2c1cnn2-c1ccccc1 | – | inactive: 7.48%
30 | O=C(Nc1cc(Cl)ccc1N1CCOCC1)C1CC1 | – | inactive: 1.13%
31 | N#Cc1cc2c(nc1SCC(=O)Nc1nccs1)CCCCC2 | inconclusive: 4.11 µM [inhibitor, partial curve] | –
32 | CCCc1nc2ccccc2c(=O)n1CCc1ccccc1 | active: 2.51 µM | –
33 | CC1CCC/C(=N\NC(=S)NCc2ccccc2)C1 (stereo unspecified) | inconclusive: 35.5 µM [inhibitor, single point] | –
34 | O=C(O)c1ccc(NC(=O)c2ccco2)c(NC(=O)c2ccco2)c1 | inconclusive: 15.8 µM [activator, single point] | –
35 | CCCCNC(=O)CSc1nc2n[nH]c(C)c2c(=N)n1-c1cccc(C)c1 | inconclusive: 7.94 µM [inhibitor, partial curve, poor fit] | –
36 | CN(C)CCCN(C(=O)c1ccc(S(=O)(=O)N2CCc3ccccc3C2)cc1)c1nc2ccc(F)cc2s1 | inconclusive: 35.5 µM [inhibitor, single point] | –
37 | CCc1ccc(NC(=O)Cn2nc(C(=O)O)c3ccccc3c2=O)cc1 | – | inactive: 5.02%
38 | Cc1cnc(NC(=O)COc2ccccc2)s1 | inconclusive: 20.6 µM [inhibitor, single point] | –
39 | CCCCCC(O)(c1ccc(OCC)cc1)C(CN1CCOCC1)c1ccccc1 (stereo unspecified) | inconclusive: 7.94 µM [inhibitor, partial curve, poor fit] | –
40 | CCOC(=O)C1CCN(C(=O)c2ccc3c(c2)sc2nc(-c4ccc(OC)cc4)cn23)CC1 | – | inactive: 13.1% [at 46.1 µM]
41 | CCN(CC)c1ccc(S(=O)(=O)N(CC)CC)cc1NC(=O)c1cccnc1 | inconclusive: 35.5 µM [inhibitor, single point] | –
42 | CCN1CCN(c2cc(C)c3cc(NC(=O)/C=C/c4cccc(OC)c4OC)ccc3n2)CC1 | inconclusive: 35.5 µM [inhibitor, single point] | –
43 | COC(=O)c1cc(S(=O)(=O)N2CCCCC2)ccc1N1CCOCC1 | – | inactive: 8.47%
44 | O=C(CSc1nnc(NC(=O)c2ccccc2)s1)NCc1ccco1 | inconclusive: 10 µM [inhibitor, partial curve] | –

Row | Compound | Potency | activity change, negative = inhibition
45 | Cc1ccc(-c2cc3nccc(-c4cc([N+](=O)[O-])ccc4O)n3n2)cc1 | inconclusive: 10 µM [inhibitor, partial curve, poor fit] | –
46 | CCN(CC)S(=O)(=O)c1cccc(NC(=O)CNc2cccc(S(=O)(=O)N3CCOCC3)c2)c1 | inconclusive: 7.94 µM [inhibitor, partial curve, poor fit] | –
47 | C=CCn1c(=O)c(C(=O)Nc2ccccc2O)c(O)c2ccccc21 | inconclusive: 3.66 µM [activator, full curve, poor fit] | –
48 | COc1ccccc1S(=O)(=O)Cc1ccc(C(=O)N2CCN(c3ccccc3)CC2)o1 | – | inactive: 5.36%
49 | CCc1ccccc1NC(=O)C1CCCN(c2ncccn2)C1 (stereo unspecified) | – | inactive: 2.64% [at 46.1 µM]
50 | CC(=O)/C(N=Nc1cccc(C(F)(F)F)c1)=C(\C)O | – | inactive: 11.1% [at 46.1 µM]
51 | O=C(CSc1nnc(COc2ccccc2)o1)c1ccccc1 | inconclusive: 20.6 µM [inhibitor, single point] | –
52 | NC(=O)C1CCN(C(=O)c2cccc(S(=O)(=O)N3CCc4ccccc4C3)c2)CC1 | – | inactive: 10.4%
53 | O=c1[nH]c2cc3c(cc2cc1C(c1nnnn1C1CCCCC1)N1CCSCC1)OCCO3 (stereo unspecified) | inconclusive: 23.1 µM [inhibitor, partial curve, poor fit] | –
54 | CCOc1ccccc1-c1nc(-c2ccc(NC(=O)c3ccc(Br)o3)cc2)no1 | inconclusive: 35.5 µM [inhibitor, single point] | –
55 | Cc1[nH]c2ccccc2c1CCN(Cc1cccnc1)C(=S)Nc1cccc(F)c1 | inconclusive: 11.2 µM [inhibitor, partial curve, poor fit] | –
56 | C=Cc1c(C)/c2[n-]/c1=C\c1[n-]c(c(CC)c1C)/C=c1\[n-]c3c(c1C)C(=O)C(C(=O)[O-])C=3c1[n-]c(c(C)c1CCC(=O)[O-])\C=2.[Cu].[Na+].[Na+] (stereo unspecified) | inconclusive: 28.1 µM [inhibitor, partial curve, poor fit] | –
57 | O=C(COc1ccc(Cl)cc1)NCC(c1cccs1)S(=O)(=O)c1ccc(F)cc1 (stereo unspecified) | inconclusive: 14.1 µM [inhibitor, partial curve, poor fit] | –
58 | O=C(Nc1cccc(-c2nc3ccccc3o2)c1)c1ccc(N2C(=O)C3C4C=CC(C4)C3C2=O)cc1 (stereo unspecified) | inconclusive: 8.91 µM [inhibitor, partial curve, poor fit] | –
59 | CCc1nc(N)nc(N)c1-c1ccc(Cl)c([N+](=O)[O-])c1 | inconclusive: 0.891 µM [inhibitor, full curve, poor fit] | –
60 | Cc1sc(NC(=O)CSc2nnnn2C2CCCCC2)c(C#N)c1C | inconclusive: 31.6 µM [activator, partial curve, poor fit] | –
61 | COc1ccc(/C=C/C(=O)Oc2ccc(C)c(C)c2)cc1OC | – | inactive: -4.92%
62 | O=C(CN1C(=O)NC2(CCCC2)C1=O)NCc1cccc(Cl)c1 | – | inactive: 9.7% [at 46.1 µM]
63 | O=C(COc1cccc2ccccc12)Nc1ccc(Cl)cc1C(=O)O | inconclusive: 10 µM [inhibitor, partial curve, poor fit] | –
64 | COc1ccc(-c2nc3sc(CCNC(=O)C(=O)Nc4ccc(C)c(C)c4)c(C)n3n2)cc1 | – | inactive: -4.72% [at 46.1 µM]
65 | Cc1c(NC(=O)C2CC(c3c(F)cccc3Cl)=NO2)c(=O)n(-c2ccccc2)n1C (stereo unspecified) | inconclusive: 18.3 µM [activator, single point] | –
66 | COc1ccc(C(C(O)C(=O)c2c[nH]c3ccccc23)N2CCN(c3ccc(OC)cc3)CC2)cc1 (stereo unspecified) | inconclusive: 6.51 µM [inhibitor, single point] | –

Taken from above.
Under activity change, negative = inhibition, NC(=O)C1CCN(C(=O)c2cccc(S(=O)(=O)N3CCc4ccccc4C3)c2)CC1 has inactive: 10.4%
Under activity change, negative = inhibition, COc1ccc(-c2nc3sc(CCNC(=O)C(=O)Nc4ccc(C)c(C)c4)c(C)n3n2)cc1 has inactive: -4.72% [at 46.1 µM]
